# Experimental data from article PMC8877285.
# By UniProt entry, the sequences of proteins in these tests, tags left out. Residues count along the entry.
# UniProt Q9DCX2: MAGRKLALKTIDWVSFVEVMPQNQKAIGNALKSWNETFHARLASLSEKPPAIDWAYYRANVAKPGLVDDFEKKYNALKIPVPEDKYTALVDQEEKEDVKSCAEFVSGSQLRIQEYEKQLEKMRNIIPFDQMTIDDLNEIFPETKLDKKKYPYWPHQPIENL
# UniProt P11679: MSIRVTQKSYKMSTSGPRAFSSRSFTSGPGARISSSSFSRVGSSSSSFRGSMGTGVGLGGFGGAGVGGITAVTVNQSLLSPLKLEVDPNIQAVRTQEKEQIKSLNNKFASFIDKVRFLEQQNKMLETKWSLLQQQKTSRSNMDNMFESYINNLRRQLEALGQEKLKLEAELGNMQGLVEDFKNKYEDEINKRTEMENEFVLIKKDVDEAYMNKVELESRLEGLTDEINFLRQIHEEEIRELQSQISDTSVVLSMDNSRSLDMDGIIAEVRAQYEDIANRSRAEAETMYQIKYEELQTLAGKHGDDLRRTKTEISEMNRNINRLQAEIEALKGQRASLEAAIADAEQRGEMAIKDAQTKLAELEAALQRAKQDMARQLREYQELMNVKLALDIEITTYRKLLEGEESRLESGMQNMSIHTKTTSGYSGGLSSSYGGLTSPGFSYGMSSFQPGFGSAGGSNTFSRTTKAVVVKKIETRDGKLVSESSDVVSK
# UniProt P02104: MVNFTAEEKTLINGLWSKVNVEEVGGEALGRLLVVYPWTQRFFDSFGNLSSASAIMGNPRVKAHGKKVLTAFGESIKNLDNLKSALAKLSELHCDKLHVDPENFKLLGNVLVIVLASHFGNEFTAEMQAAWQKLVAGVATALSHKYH
# UniProt P26039: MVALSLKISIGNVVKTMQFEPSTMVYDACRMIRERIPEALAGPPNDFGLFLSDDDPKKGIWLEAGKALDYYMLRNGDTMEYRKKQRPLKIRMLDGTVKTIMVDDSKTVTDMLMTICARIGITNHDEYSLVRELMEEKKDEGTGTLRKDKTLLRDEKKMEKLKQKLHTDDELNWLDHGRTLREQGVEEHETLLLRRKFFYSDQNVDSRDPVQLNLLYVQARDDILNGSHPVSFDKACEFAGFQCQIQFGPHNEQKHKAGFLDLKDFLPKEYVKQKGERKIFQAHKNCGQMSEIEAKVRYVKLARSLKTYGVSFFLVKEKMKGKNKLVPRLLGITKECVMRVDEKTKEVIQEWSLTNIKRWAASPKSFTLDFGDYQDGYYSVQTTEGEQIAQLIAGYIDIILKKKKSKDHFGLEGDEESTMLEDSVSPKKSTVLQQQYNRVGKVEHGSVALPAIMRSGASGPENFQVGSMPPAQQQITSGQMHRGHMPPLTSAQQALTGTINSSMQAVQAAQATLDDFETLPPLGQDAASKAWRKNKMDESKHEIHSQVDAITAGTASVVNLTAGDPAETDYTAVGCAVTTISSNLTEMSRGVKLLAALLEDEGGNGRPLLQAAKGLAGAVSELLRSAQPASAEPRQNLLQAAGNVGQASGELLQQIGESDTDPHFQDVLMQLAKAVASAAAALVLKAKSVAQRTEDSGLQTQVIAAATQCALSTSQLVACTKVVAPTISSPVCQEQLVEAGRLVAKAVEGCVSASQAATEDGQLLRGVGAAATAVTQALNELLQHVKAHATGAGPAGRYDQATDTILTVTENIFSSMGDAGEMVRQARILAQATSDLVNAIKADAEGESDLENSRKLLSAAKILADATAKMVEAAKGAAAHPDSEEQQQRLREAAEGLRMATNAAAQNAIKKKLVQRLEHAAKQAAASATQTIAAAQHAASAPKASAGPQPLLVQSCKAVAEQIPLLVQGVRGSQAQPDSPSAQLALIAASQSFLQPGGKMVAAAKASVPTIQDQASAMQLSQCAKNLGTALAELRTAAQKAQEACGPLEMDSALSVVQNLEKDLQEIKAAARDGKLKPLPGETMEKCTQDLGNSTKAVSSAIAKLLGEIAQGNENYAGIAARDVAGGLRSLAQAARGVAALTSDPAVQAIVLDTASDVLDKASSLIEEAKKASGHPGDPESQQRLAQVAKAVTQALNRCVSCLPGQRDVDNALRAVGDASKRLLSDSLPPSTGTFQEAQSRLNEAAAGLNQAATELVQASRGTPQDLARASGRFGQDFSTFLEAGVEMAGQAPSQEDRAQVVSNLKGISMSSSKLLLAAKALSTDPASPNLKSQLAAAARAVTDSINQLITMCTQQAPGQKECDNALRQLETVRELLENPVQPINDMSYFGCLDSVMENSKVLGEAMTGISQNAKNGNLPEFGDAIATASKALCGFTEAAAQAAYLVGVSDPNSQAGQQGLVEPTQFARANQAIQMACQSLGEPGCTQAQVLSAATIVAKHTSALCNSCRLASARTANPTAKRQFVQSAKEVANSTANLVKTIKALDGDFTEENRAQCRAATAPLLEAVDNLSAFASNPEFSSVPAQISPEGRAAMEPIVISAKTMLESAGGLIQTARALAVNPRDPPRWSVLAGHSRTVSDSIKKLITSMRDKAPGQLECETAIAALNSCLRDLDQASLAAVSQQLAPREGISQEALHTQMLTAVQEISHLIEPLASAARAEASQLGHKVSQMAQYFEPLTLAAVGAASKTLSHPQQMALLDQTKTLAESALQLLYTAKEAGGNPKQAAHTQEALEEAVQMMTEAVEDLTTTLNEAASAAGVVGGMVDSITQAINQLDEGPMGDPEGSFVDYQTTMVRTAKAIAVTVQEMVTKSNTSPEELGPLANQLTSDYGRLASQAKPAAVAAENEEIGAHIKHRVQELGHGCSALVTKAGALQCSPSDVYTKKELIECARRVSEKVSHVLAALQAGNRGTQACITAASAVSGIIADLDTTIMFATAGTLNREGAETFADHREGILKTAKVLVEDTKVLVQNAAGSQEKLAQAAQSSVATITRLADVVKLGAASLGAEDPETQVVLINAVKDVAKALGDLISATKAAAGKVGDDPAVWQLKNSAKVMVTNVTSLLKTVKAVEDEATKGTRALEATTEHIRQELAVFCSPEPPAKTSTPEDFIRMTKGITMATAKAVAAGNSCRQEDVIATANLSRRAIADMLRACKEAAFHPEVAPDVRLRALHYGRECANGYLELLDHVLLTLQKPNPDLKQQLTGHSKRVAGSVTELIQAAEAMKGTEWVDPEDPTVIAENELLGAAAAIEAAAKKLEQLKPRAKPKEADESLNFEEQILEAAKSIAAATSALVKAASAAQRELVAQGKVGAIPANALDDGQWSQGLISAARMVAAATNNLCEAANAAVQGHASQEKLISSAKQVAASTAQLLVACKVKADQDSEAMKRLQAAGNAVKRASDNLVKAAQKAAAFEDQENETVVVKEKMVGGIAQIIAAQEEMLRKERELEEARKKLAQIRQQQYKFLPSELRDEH
# UniProt P15105: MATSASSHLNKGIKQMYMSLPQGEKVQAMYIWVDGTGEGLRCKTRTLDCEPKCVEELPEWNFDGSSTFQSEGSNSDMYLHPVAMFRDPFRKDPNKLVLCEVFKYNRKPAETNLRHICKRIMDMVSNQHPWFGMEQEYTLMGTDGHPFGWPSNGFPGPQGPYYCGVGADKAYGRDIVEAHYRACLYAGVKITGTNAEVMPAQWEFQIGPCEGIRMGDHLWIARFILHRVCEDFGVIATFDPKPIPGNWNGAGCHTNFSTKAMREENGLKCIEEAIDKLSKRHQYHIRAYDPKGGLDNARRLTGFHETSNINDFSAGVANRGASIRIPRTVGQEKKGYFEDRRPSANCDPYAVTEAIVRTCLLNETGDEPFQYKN
# UniProt O35129: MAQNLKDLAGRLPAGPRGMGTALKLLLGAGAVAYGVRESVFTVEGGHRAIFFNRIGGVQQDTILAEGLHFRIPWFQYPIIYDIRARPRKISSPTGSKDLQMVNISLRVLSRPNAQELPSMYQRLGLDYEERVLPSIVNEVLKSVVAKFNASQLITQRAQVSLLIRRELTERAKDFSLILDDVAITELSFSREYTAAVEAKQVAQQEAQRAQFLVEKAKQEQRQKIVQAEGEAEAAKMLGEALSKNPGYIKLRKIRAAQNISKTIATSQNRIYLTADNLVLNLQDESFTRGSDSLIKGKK
# UniProt O08573: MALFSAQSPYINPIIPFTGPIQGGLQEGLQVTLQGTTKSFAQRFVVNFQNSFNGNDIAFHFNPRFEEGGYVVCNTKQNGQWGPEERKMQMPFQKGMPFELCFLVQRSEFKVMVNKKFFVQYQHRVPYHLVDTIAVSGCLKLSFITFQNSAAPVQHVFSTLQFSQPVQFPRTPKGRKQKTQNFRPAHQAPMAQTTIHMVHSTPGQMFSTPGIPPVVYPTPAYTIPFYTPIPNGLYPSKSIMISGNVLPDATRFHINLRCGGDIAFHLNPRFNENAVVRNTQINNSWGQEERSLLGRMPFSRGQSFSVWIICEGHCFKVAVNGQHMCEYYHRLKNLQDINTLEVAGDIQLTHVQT
# UniProt Q9CQ75: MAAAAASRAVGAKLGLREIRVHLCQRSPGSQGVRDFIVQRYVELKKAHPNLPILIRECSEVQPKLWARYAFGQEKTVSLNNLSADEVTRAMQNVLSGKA
# UniProt Q91X83: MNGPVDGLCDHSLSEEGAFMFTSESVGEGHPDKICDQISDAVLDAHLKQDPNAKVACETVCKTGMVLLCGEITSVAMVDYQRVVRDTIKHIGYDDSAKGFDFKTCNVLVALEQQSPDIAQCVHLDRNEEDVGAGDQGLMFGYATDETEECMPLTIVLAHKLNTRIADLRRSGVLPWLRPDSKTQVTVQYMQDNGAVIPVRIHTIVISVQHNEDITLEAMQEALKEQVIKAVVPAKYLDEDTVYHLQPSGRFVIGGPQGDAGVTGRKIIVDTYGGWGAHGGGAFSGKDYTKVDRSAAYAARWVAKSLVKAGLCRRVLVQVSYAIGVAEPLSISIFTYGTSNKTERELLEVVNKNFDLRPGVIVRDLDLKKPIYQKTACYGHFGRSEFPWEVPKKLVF
# UniProt Q9WUM5, residues 35-346: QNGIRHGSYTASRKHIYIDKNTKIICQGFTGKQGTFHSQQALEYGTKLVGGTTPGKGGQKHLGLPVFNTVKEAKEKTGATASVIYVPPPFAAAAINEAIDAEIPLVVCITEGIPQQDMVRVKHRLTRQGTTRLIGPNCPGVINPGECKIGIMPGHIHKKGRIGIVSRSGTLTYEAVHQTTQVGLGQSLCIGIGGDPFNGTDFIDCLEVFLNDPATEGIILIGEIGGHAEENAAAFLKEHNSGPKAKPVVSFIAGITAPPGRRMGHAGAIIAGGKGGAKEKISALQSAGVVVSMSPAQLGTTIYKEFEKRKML
# UniProt P53657: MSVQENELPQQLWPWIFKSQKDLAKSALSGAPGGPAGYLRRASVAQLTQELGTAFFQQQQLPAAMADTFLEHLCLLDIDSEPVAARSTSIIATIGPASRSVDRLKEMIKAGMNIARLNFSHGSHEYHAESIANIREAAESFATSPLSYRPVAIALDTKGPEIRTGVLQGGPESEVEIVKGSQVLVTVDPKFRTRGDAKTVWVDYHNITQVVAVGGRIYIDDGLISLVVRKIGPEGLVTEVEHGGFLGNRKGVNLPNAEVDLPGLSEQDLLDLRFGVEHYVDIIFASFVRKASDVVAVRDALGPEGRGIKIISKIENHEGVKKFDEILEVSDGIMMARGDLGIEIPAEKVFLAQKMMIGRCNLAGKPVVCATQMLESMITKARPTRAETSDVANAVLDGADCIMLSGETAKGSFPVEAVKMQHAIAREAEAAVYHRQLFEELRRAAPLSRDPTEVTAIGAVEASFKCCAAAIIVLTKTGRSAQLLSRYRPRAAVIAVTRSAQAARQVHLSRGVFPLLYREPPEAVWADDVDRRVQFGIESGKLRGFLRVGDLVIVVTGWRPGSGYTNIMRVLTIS
# UniProt P14106, residues 26-253: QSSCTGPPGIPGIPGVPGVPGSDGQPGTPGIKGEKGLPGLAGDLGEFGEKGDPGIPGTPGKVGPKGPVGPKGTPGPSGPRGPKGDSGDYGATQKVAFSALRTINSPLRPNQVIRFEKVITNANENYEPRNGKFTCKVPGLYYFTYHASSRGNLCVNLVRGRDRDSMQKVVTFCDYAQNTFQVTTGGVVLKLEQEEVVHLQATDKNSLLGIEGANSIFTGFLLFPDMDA
# UniProt P48776: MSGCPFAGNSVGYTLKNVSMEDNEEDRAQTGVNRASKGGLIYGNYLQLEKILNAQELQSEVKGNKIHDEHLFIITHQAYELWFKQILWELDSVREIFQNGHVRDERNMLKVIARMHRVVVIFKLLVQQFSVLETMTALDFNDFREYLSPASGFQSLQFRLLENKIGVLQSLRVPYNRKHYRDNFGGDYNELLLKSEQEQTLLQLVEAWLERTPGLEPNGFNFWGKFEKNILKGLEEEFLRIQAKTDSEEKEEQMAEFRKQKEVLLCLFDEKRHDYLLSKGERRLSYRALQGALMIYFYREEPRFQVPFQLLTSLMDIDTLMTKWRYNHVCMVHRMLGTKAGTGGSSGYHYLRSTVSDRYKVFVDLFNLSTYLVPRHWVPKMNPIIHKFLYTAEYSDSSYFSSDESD
# No constants are given. Whether binding was seen depends on the method and setting. Binding seen in cells or lysates may run through a third protein. Here binding means that the protein was enriched with, or labelled near, the bait; the list need not be complete. Tags and fused reporters may be left off the sequences shown.
# T1: flavin-containing monooxygenase 3 (FMO3) (mouse (endogenous in mouse liver)) (UniProt P97501)
# T1 sequence: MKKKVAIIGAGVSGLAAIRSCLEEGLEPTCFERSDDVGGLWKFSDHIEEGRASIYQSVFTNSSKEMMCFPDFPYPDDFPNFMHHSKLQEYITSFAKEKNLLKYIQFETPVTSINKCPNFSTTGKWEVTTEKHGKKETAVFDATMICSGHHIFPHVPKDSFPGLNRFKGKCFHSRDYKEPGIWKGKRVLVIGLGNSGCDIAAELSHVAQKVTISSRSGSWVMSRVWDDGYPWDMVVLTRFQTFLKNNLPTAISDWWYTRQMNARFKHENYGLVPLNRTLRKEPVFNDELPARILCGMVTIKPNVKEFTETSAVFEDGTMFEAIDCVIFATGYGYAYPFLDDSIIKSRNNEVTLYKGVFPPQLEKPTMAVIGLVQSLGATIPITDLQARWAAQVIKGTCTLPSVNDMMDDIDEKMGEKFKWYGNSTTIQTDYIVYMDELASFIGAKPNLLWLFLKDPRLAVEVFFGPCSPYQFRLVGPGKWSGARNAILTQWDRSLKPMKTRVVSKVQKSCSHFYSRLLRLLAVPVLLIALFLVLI
# Target: T1, flavin-containing monooxygenase 3 (FMO3) (mouse (endogenous in mouse liver))
# Assay: affinity purification with mass spectrometry; mouse liver extracts (vehicle or PCB-126-treated mice) in TBS (25 mM Tris pH 7.4, 150 mM NaCl, 1% NP-40, 5% glycerol, protease inhibitors), immunoprecipitated overnight at 4 °C with anti-FMO3 (Abnova) on protein A/G agarose; normal IgG IP as control; LC-MS/MS of the tryptic digest
row,binding,Molecule
1,binds,complement C3 (from UniProt P01027 25-1663)
2,binds,ATP5PD (from UniProt Q9DCX2 1-161)
3,binds,VWA8 (from UniProt Q8CC88 46-1905)
4,binds,KRT8 (from UniProt P11679 1-490)
5,binds,HBB-Y (from UniProt P02104 1-147)
6,binds,TLN1 (from UniProt P26039 1-2541)
7,binds,GLUL (from UniProt P15105 1-373)
8,binds,C1RA (mouse (endogenous in mouse liver))
9,binds,PHB2 (from UniProt O35129 1-299)
10,binds,LGALS9 (from UniProt O08573 1-353)
11,binds,NDUFA2 (from UniProt Q9CQ75 1-99)
12,binds,MAT1A (from UniProt Q91X83 1-396)
13,binds,TUBB4B (from UniProt P68372 1-445)
14,binds,SUCLG1 (from UniProt Q9WUM5 35-346)
15,binds,PKLR (from UniProt P53657 1-574)
16,binds,C1QB (from UniProt P14106 26-253)
17,binds,TDO2 (from UniProt P48776 1-406)
18,binds,"GYS2 (protein, UniProt Q8VCB3 1-704) MLRGRSLSVTSLGGLPVWEAERLPVEDLLLFEVSWEVTNKVGGICTVIQTKAKTTADEWGENYFLIGPYFEHNMKTQVEQCEPTNDAVRKAVDAMNKHGCQVHFGRWLIEGSPYVVLFDISSSAWNLDRWKGDFWEACGVGIPHHDREANDMLIFGSLTAWFLKEVTDHADGKHVIAQFHEWQAGTGLILSRARKLPIATVFTTHATLLGRYLCAANIDFYNQLDKFDIDKEAGERQIYHRYCMERASVHCAHVFTTVSEITAIEAEHMLKRKPDVVTPNGLNVKKFSAVHEFQNLHAMYKARIQDFVRGHFYGHLDFDLEKTLFLFIAGRYEFSNKGADIFLESLSRLNFLLRMHKSNVTVVVFFIMPAKTNNFNVETLKGQAVRKQLWDTVHCLKEKFGKKLYDGLLRGEIPDMNSILDRDDLTIMKRAIFSTQRQSLPPVTTHNMIDDSTDPILSTIRRIGLFNNRADRVKVILHPEFLSSTSPLLPMDYEEFVRGCHLGVFPSYYEPWGYTPAECTVMGIPSVTTNLSGFGCFVQEHVADPTAYGIYIVDRRFRSPDDSCNQLTQFLYGFCKQSRRQRIIQRNRTERLSDLLDWRYLGRYYQHARHLTLSRAFPDKFHLEPTSPPTTDGFKYPRPSSVPPSPSGSQASSPQCSDAEDEEDEDERYDEEEEAERDRLNIKSPFSLNHFPKGKKKLHGEYKN"
19,binds,"keratin18 (protein, UniProt P05784 1-423) MSFTTRSTTFSTNYRSLGSVRTPSQRVRPASSAASVYAGAGGSGSRISVSRSVWGGSVGSAGLAGMGGIQTEKETMQDLNDRLASYLDKVKSLETENRRLESKIREHLEKKGPQGVRDWGHYFKIIEDLRAQIFANSVDNARIVLQIDNARLAADDFRVKYETELAMRQSVESDIHGLRKVVDDTNITRLQLETEIEALKEELLFMKKNHEEEVQGLEAQIASSGLTVEVDAPKSQDLSKIMADIRAQYEALAQKNREELDKYWSQQIEESTTVVTTKSAEIRDAETTLTELRRTLQTLEIDLDSMKNQNINLENSLGDVEARYKAQMEQLNGVLLHLESELAQTRAEGQRQAQEYEALLNIKVKLEAEIATYRRLLEDGEDFSLNDALDSSNSMQTVQKTTTRKIVDGRVVSETNDTRVLRH"
20,binds,"MRI1 (protein, UniProt Q9CQT1 1-369) MTLEAIRYSPGSLQILDQLQLPEHCHYEALSSVQQASEAIRAMKVRGAPAIALVGCLSLAVELRAGAGGPGLAALVAFVRDQLRLLVAARPTAVNMARAARDLGQVAAQEAEREGATEETVRERVIRFAEDMLEKDLKDNRSIGDLGARHLLEQTNPRGGKVTVLTHCNTGALATAGYGTALGVIRSLHEMGRLEHTFCTETRPYNQGARLTAFELVYEQIPATLITDSMAAAAMAHRGVSAVVVGADRVVANGDTANKIGTYQLAIVAKHHGVPFYVAAPSSSCDLHLETGKEIVIEERPSQELTDLNGVRIAAQGIRVWNPAFDVTPHELITGGIITELGVFAPEELRGALSASVFSEGQTLDSPWV"
21,binds,"carbamoylphosphate synthetase (CPS1) (protein, UniProt Q8C196 39-1500) LSVKAKTAHIVLEDGTKMKGYSFGHPSSVAGEVVFNTGLGGYPEALTDPAYKGQILTMANPIIGNGGAPDTTARDELGLNKYMESDGIKVAGLLVLNYSNDYNHWLATKSLGQWLQEEKVPAIYGVDTRMLTKIIRDKGTMLGKIEFEGQSVDFVDPNKQNLIAEVSTKDVKVFGKGNPTKVVAVDCGIKNNVIRLLVKRGAEVHLVPWNHDFTQMEYDGLLIAGGPGNPALAQPLIQNVKKILESDRKEPLFGISTGNIITGLAAGAKSYKMSMANRGQNQPVLNITNRQAFITAQNHGYALDNTLPAGWKPLFVNVNDQTNEGIMHESKPFFAVQFHPEVSPGPTDTEYLFDSFFSLIKKGKGTTITSVLPKPALVASRVEVSKVLILGSGGLSIGQAGEFDYSGSQAVKAMKEENVKTVLMNPNIASVQTNEVGLKQADAVYFLPITPQFVTEVIKAERPDGLILGMGGQTALNCGVELFKRGVLKEYGVKVLGTSVESIMATEDRQLFSDKLNEINEKIAPSFAVESMEDALKAADTIGYPVMIRSAYALGGLGSGICPNKETLIDLGTKAFAMTNQILVERSVTGWKEIEYEVVRDADDNCVTVCNMENVDAMGVHTGDSVVVAPAQTLSNAEFQMLRRTSVNVVRHLGIVGECNIQFALHPTSMEYCIIEVNARLSRSSALASKATGYPLAFIAAKIALGIPLPEIKNVVSGKTSACFEPSLDYMVTKIPRWDLDRFHGTSSRIGSSMKSVGEVMAIGRTFEESFQKALRMCHPSVDGFTPRLPMNKEWPANLDLKKELSEPSSTRIYAIAKALENNMSLDEIVRLTSIDKWFLYKMRDILNMDKTLKGLNSDSVTEETLRKAKEIGFSDKQISKCLGLTEAQTRELRLKKNIHPWVKQIDTLAAEYPSVTNYLYVTYNGQEHDIKFDEHGIMVLGCGPYHIGSSVEFDWCAVSSIRTLRQLGKKTVVVNCNPETVSTDFDECDKLYFEELSLERILDIYHQEACNGCIISVGGQIPNNLAVPLYKNGVKIMGTSPLQIDRAEDRSIFSAVLDELKVAQAPWKAVNTLNEALEFANSVGYPCLLRPSYVLSGSAMNVVFSEDEMKRFLEEATRVSQEHPVVLTKFVEGAREVEMDAVGKEGRVISHAISEHVEDAGVHSGDATLMLPTQTISQGAIEKVKDATRKIAKAFAISGPFNVQFLVKGNDVLVIECNLRASRSFPFVSKTLGVDFIDVATKVMIGESIDEKRLPTLEQPIIPSDYVAIKAPMFSWPRLRDADPILRCEMASTGEVACFGEGIHTAFLKAMLSTGFKIPQKGILIGIQQSFRPRFLGVAEQLHNEGFKLFATEATSDWLNANNVPATPVAWPSQEGQNPSLSSIRKLIRDGSIDLVINLPNNNTKFVHDNYVIRRTAVDSGIALLTNFQVTKLFAEAVQKSRTVDSKSLFHYRQYSAGKAA"
22,binds,"GSTM1 (protein, UniProt P10649 1-218) MPMILGYWNVRGLTHPIRMLLEYTDSSYDEKRYTMGDAPDFDRSQWLNEKFKLGLDFPNLPYLIDGSHKITQSNAILRYLARKHHLDGETEEERIRADIVENQVMDTRMQLIMLCYNPDFEKQKPEFLKTIPEKMKLYSEFLGKRPWFAGDKVTYVDFLAYDILDQYRMFEPKCLDAFPNLRDFLARFEGLKKISAYMKSSRYIATPIFSKMAHWSNK"
